Test results published in patent publication US20200360479A1.
No constants are given. Whether binding was seen depends on the method and setting. Some binding calls cover weakened binding; strength is not graded here.

Sequences of proteins named here, by UniProt entry; tags and fusion partners are left off. A change or cut given only in a name is not applied to a line headed by its entry.
UniProt P78556: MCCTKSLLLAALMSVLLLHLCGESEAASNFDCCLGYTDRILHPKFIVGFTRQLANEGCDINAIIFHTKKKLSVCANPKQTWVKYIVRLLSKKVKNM

How the values were obtained:
[1] = biological target: T1, CCR6 (UniProt P51684); assay: radioligand displacement on CCR6+ COS-7 cells
T1 sequence (looked up): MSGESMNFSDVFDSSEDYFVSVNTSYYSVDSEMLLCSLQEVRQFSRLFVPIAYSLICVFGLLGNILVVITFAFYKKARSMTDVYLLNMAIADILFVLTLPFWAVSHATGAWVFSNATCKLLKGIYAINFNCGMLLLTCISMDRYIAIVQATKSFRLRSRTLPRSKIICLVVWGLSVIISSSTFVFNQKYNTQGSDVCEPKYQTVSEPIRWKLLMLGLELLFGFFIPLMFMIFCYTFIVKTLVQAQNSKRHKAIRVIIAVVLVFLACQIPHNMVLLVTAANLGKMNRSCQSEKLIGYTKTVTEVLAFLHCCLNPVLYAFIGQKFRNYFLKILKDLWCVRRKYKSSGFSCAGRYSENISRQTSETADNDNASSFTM

[2] = biological target: T1, CCR6; assay: inferred from chemotaxis inhibition assays
[3] = biological target: T1, CCR6; assay: inferred from calcium flux on CCR6+ Jurkat cells

Row | Substance | binding [1] | binding [2] | binding [3]
1 | CCL20 S64C locked dimer (from UniProt P78556 27-96) (ligand) | binds | binds | binds
2 | CCL20 WT (from UniProt P78556 27-96) (ligand) | binds | – | –
